One molecule from article PMC11540758 can be followed below.

The assay deals with T1, NPR4 (positive control of the luciferase complementation assay) (UniProt Q5ICL9).
T1 sequence: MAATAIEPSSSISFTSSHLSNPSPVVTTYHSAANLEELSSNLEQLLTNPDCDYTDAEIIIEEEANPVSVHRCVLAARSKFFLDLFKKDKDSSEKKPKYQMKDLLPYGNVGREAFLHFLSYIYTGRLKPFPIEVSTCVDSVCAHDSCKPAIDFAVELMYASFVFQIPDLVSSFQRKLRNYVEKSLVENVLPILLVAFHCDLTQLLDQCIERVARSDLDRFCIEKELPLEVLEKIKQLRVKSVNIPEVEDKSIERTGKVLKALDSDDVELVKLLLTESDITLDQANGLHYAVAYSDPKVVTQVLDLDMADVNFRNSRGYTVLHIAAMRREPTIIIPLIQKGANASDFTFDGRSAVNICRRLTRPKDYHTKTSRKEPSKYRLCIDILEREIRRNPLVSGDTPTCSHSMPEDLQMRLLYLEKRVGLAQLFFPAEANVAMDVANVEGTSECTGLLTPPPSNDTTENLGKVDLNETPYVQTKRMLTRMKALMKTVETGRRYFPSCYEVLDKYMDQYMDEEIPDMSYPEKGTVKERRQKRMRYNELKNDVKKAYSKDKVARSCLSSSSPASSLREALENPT
Nature of the assay: split reporter; split luciferase complementation assay (LCA) in N. benthamiana leaves, imaged 48 hours after agro-infiltration with luciferin.

Results are given in words; binding and its absence hold for the method and conditions named. Binding seen in cells or lysates may run through a third protein. Some entries that bind do so weakly or less than the wild type. Where a sequence is shown, tags or fusion partners need not be part of it.

B1: NPR3 (positive control of the luciferase complementation assay) (protein, UniProt Q8L746 1-586)
chain: MATLTEPSSSLSFTSSHFSYGSIGSNHFSSSSASNPEVVSLTKLSSNLEQLLSNSDCDYSDAEIIVDGVPVGVHRCILAARSKFFQDLFKKEKKISKTEKPKYQLREMLPYGAVAHEAFLYFLSYIYTGRLKPFPLEVSTCVDPVCSHDCCRPAIDFVVQLMYASSVLQVPELVSSFQRRLCNFVEKTLVENVLPILMVAFNCKLTQLLDQCIERVARSDLYRFCIEKEVPPEVAEKIKQLRLISPQDEETSPKISEKLLERIGKILKALDSDDVELVKLLLTESDITLDQANGLHYSVVYSDPKVVAEILALDMGDVNYRNSRGYTVLHFAAMRREPSIIISLIDKGANASEFTSDGRSAVNILRRLTNPKDYHTKTAKGRESSKARLCIDILEREIRKNPMVLDTPMCSISMPEDLQMRLLYLEKRVGLAQLFFPTEAKVAMDIGNVEGTSEFTGLSPPSSGLTGNLSQVDLNETPHMQTQRLLTRMVALMKTVETGRRFFPYGSEVLDKYMAEYIDDDILDDFHFEKGSTHERRLKRMRYRELKDDVQKAYSKDKESKIARSCLSASSSPSSSSIRDDLHNTT
B1: the binding entry is “binds”.
